Assay results as given in PMC10121563 (2023).
No constants are given. Whether binding was seen depends on the method and setting. Some results given as binding are weak or reduced against the parent protein; the word gives no strength. Sequences can lack the tags named with a protein.

T1: GST::OsABI5 fusion protein (rice (Oryza sativa)) (UniProt Q8RZ35)
T1 sequence: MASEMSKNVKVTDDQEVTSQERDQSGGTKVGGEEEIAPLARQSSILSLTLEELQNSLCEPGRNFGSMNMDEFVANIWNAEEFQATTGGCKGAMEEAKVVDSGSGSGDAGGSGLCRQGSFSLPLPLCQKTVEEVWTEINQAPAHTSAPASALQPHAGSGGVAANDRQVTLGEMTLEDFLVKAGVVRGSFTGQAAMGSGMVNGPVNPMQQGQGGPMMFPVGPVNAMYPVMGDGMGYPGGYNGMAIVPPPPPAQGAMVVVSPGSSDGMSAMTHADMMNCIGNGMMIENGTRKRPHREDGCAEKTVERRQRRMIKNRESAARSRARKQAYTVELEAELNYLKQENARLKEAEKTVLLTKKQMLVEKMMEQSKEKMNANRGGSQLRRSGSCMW


Target: T1, GST::OsABI5 fusion protein (rice (Oryza sativa))
Assay: pull-down; 2 μg MBP::OsJAZ6 or MBP::OsJAZ7 prey incubated with 2 μg immobilized GST, GST::OsABI3 or GST::OsABI5 bait; washed three times; immunoblot with anti-GST and anti-MBP; both purified

Row | binding | Binder
1 | binds | MBP::OsJAZ7 fusion protein (protein) MAASARPVGVGGERATSFAMACSLLSRYVRQNGAAAAELGLGIRGEGEAPRAAPATMSLLPGEAERKKETMELFPQSAGFGQQDAITADSAADAREQEPEKRQLTIFYGGKVLVFNDFPADKAKGLMQLASKGSPVAPQNAAAPAPAAVTDNTKAPMAVPAPVSSLPTAQADAQKPARANASDMPIARKASLHRFLEKRKDRLNAKTPYQASPSDATPVKKEPESQPWLGLGPNAVVKPIERGQ
2 | binds | MBP::OsJAZ6 fusion protein (protein) MASAKSGERGSSSFAMACSLLSRYVRQNGAAAGELGLGIRGEADANKGKETMELFPQNSGFGSEAAAVKETPDAREQEKRQLTIFYGGKVLVFDDFPAEKAKDLMQMASKSSSTAQNCVLLPSSATATVADNTKVSAVPAPASALPVAQANAPKPVRPNAADLPQARKASLHRFLEKRKDRLQAKAPYQGSPSDASPVKKELQESQPWLGLGPQVAAPDLSLRQESSQ
